No constants are given. Whether binding was seen depends on the method and setting. In cells and extracts the contact can be indirect. Some results given as binding are weak or reduced against the parent protein; the word gives no strength.
Target: T1, Dual specificity protein phosphatase 6 (DUSP6), endogenous in colon cancer cell lines (human (endogenous in HCT116, SW480, HT-29)) (UniProt Q16828)
T1 sequence: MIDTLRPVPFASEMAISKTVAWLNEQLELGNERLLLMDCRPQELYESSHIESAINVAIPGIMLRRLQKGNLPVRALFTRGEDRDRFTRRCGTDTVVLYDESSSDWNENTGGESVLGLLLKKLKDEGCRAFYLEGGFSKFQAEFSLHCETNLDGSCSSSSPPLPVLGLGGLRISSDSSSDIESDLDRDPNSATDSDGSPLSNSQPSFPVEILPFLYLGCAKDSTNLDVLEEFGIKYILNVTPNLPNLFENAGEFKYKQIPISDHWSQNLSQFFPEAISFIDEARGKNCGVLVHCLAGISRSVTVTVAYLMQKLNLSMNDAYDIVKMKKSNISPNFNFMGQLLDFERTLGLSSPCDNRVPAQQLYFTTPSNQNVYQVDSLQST
Assay: co-IP; endogenous proteins in lysates of HCT116, SW480 and HT-29 cells; supernatants incubated with anti-DUSP6, anti-PKN2 or control IgG at 4 °C overnight, protein A/G agarose beads 2 h; western blot

By UniProt entry, the sequences of proteins in these tests, tags left out.
UniProt Q16513: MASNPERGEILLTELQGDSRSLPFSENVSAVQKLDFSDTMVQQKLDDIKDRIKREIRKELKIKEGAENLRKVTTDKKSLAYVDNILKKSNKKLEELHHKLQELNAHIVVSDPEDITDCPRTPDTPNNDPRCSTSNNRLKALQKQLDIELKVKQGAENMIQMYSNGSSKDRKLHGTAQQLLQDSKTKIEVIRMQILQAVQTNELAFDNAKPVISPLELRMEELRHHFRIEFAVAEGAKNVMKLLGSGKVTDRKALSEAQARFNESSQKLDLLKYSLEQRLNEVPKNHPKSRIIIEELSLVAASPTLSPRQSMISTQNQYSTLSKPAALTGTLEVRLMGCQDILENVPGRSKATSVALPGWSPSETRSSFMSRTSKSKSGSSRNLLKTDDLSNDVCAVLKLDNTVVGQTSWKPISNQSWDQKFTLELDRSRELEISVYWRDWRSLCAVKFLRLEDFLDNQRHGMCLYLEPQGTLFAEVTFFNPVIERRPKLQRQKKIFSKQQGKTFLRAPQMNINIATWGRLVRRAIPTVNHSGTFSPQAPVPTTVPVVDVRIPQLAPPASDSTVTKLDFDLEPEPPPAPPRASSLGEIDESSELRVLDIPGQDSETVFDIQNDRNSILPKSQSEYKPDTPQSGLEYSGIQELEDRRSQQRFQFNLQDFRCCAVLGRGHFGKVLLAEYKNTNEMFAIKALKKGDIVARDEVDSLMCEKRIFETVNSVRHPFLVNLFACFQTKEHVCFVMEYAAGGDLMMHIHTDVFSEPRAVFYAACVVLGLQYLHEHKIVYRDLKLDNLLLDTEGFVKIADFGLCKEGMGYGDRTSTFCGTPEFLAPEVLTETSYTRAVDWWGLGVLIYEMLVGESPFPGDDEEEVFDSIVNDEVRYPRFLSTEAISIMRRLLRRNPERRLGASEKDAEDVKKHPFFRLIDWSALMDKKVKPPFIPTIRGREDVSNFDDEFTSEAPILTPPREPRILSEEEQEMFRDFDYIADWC

## Protein kinase N2 (PKN2), endogenous in colon cancer cell lines (from UniProt Q16513 1-984)
  binding: binds
